Patent US7932083B2, “DNA participating in hydroxylation of macrolide compound” (priority 2003, dated 2011)

Tested on: E. coli BL21(DE3)/pT7NS-CamAB strain used as a control
Experiment: Conversion reaction with control strain BL21(DE3)/pT7NS-CamAB, HPLC amounts
Type: cell-based
Conditions: 28° C., 24 hours
[1] = substrate ME-265 (50 μL of 8 mg/mL)
[2] = substrate 11107B (12.5 μL of 40 mg/mL), Example 9
[3] = substrate 11107B (12.5 μL of 40 mg/mL), Example 12
[4] = substrate 11107B (50 μL of 40 mg/mL), Example 4

Compound | amount in conversion reaction solution (HPLC), BL21(DE3)/pT7NS-CamAB [1] | amount in conversion reaction solution (HPLC), BL21(DE3)/pT7NS-CamAB [2] | amount in conversion reaction solution (HPLC), BL21(DE3)/pT7NS-CamAB [3] | amount in conversion reaction solution (HPLC), BL21(DE3)/pT7NS-CamAB [4]
CCC(O)C(C)C1OC1CC(C)(O)/C=C/C=C(\C)C1OC(=O)CC(O)CCC(C)C(OC(C)=O)/C=C/C1C (centres unmarked) [ME-282] | 0 mg/L | – | – | –
CCC(O)C(C)C1OC1CC(C)(O)/C=C/C=C(\C)C1OC(=O)CC(O)CCC(C)(O)C(OC(C)=O)/C=C/C1C (centres unmarked) [11107D] | – | 0.00 mg/L | 0 mg/L | 0 mg/L
CCC(O)C(C)C1OC1CC(C)/C=C/C=C(\C)C1OC(=O)CC(O)CCC(C)C(OC(C)=O)/C=C/C1C (centres unmarked) [ME-265] | 143 mg/L | – | – | –
CCC(O)C(C)C1OC1CC(C)/C=C/C=C(\C)C1OC(=O)CC(O)CCC(C)(O)C(OC(C)=O)/C=C/C1C (centres unmarked) [11107B] | – | 162 mg/L | 141 mg/L | 636 mg/L
